Hit rate of the full screen: of about 320,000 compounds, about 2,100 (0.66%) were called active. Inconclusive results, whose numbers are uncertain, are shown with a selection of clear calls. The call rests on the fitted dose curve; in most records, active means well fitted inhibition curve with a large enough effect in the signal ratio, with a control signal flat (not every such curve was filed as active); inconclusive means small, poorly fitted or top-dose-only effect, or effect the other way, or a change in a side signal; inactive means flat fitted curve, though single readings scatter; the % refers to the signal ratio. A potency beside an inconclusive call is a rough fit, not a confirmed value.
assay: qHTS Assay for Lipid Storage Modulators in Drosophila S3 Cells; details: BODIPY lipid droplet fluorescence, 18-24 h, cells fed with added oleic acid; lipid storage change, negative = inhibition: at 46.1 µM (top of the series) unless noted
In short: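 Laser-scanning cytometry quantifies lipid droplet accumulation (500–530 nm total intensity; droplet/cell object ratio) in oleic acid-fed (400 uM added) Drosophila S3 cells treated with a concentration series. 20 uM Triacsin C defined 100% inhibition.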
On the % scale 0 is the no-effect control and ±100 the full control effect; potency means the concentration at half of the fitted maximal effect.

SMILES | lipid storage change, negative = inhibition | Potency
C(/C=C/C=C/Nc1ccccc1)=Nc1ccccc1 | inconclusive: 26.3% | –
O=C(CO/N=C/c1ccc(OC(F)F)cc1)NC1CCCCC1 | inconclusive: -5.12% | –
COc1cc2c(cc1OC)CN(CC(=O)Nc1ccc(F)cc1)C(C(=O)O)C2 (stereo unspecified) | inconclusive: 11.7% | –
Cc1cccc(CS(=O)(=O)Cc2ccc(C(=O)NC(C)c3ccccc3)o2)c1 (stereo unspecified) | – | inconclusive: 6510 nM [falling, single point]
CN(C)S(=O)(=O)c1cc(NC(=O)CNCCN2CCOCC2)ccc1Cl | inconclusive: 0.329% | –
CCOC(=O)CSc1nnc(-c2ccc(OC)cc2)n1CC | inconclusive: -12.1% | –
Cn1ncc(Cl)c1C(=O)N1CCN(c2ccc(F)cc2)CC1 | inconclusive: 40.3% | –
CCN(CC)S(=O)(=O)c1cccc(-c2nnc(SCc3ncc(-c4ccccc4)o3)n2C)c1 | – | inconclusive: 8200 nM [falling, partial curve]
Cn1c(CNC(=O)c2ccc3c(c2)OCO3)nnc1SCC(=O)Nc1ccc(F)cc1 | inconclusive: -0.0628% | –
Cc1ccc(CNC(=O)CSc2nc(=O)n3ccccc3n2)cc1 | inconclusive | –
CCCCn1c(N)c(N(CC(C)C)C(=O)COC(=O)Cc2c(C)nc3ccccc3c2C)c(=O)[nH]c1=O | inconclusive: 0.796% | –
CC(C)CSc1nc2ccccc2n1CC(N)=O | inconclusive: -12.6% | –
Cc1ccc(NS(=O)(=O)c2ccc(C(=O)NCc3ccccn3)cc2)cc1 | inactive: -21% | –
COc1ccc(OC)c(-c2csc(NC(=O)CSCc3c(C)noc3C)n2)c1 | inconclusive: 29.1% | –
COc1ccc(C(=O)COC(=O)CNC(=O)c2cccs2)cc1Br | inconclusive: -5.58% | –
N#CC1=C(N)Oc2ccc3ccc(O)cc3c2C1c1ccsc1 (stereo unspecified) | inconclusive: 7.83% | –
CCOc1ccc(/C=N/n2c(-c3ccccc3)n[nH]c2=S)cc1 | – | inconclusive: 1840 nM [activator, single point]
COc1cc2cc(CCOC(=O)c3ccc(C(F)(F)F)cc3)oc(=O)c2cc1OC | – | inconclusive: 461 nM [falling, partial curve]
COc1cc2c(cc1OC)C(c1cc3cc(OC)c(OC)cc3[nH]c1=O)N(C(=O)C1CC1)CC2 (stereo unspecified) | inconclusive: -28.2% | –
O=C1C(Cl)=C(N2CCCCCC2)C(=O)N1c1ccccc1Cl | inconclusive: -21.6% | –
CC(=O)Nc1nc(C)c(-c2csc(Nc3ccccn3)n2)s1 | inconclusive: -27.9% | –
CCCCn1c(N)c(N(CCOC)C(=O)Cn2c(=O)oc3ccccc32)c(=O)[nH]c1=O | inconclusive | –
COc1ccccc1OCC(=O)Nc1ccc(NC(=O)COc2ccccc2OC)cc1 | inactive: -14.2% | –
O=S(=O)(c1ccc2c(c1)OCCO2)N1CCN(Cc2ccccc2)CC1 | inconclusive: 19% | –
Cc1cc(C(=O)COC(=O)c2cccc(O)c2)c(C)n1C1CC1 | inconclusive: 89.3% | –
O=C1c2ccccc2C(=O)N1CCCc1nc2ccccc2c(=O)n1-c1cccnc1 | inconclusive: 12% | –

SMILES | lipid storage change, negative = inhibition | Potency
CCOC(=O)N1CCN(C(=O)C(=O)Nc2sc3c(c2C(N)=O)CC(C)(C)OC3)CC1 | – | inconclusive: 29100 nM [activator, single point]
O=C(/C=C/c1cccc([N+](=O)[O-])c1)NCc1ccc2c(c1)OCO2 | – | inconclusive: 1840 nM [activator, partial curve]
COc1ccc(OCCCC(=O)OCC(=O)NNC(=O)c2ccc([N+](=O)[O-])cc2)cc1 | inconclusive: -17.1% | –
COc1ccc(S(=O)(=O)N2CCCCC2)cc1NC(=O)CN(C)C1CCCCC1 | inconclusive: -24.7% | –
CN1CCN(c2ccc(Cl)cc2NC(=O)CC2OC(=O)c3ccccc32)CC1 (stereo unspecified) | inconclusive: 36.6% | –
Cc1ccn(CC(C)C(=O)O)n1 (stereo unspecified) | inactive: 0.546% | –
Cc1onc(-c2ccccc2)c1C(=O)N/N=C/c1cn(C)c2ccccc12 | inconclusive: -6.09% | –
O=c1c2c(-c3ccccc3)csc2ncn1/N=C/c1ccc(O)c([N+](=O)[O-])c1 | inconclusive: 4.42% | –
O=C(NCc1ccncc1)C(=O)NCC1OCCCN1S(=O)(=O)c1cc(F)ccc1F (stereo unspecified) | inconclusive: 31.9% | –
Cc1ccc(OCC(=O)N2CCC(N3CCCCCC3)CC2)cc1 | inconclusive: -36% | –
Cc1ccc(NC(=O)COC(=O)C2COc3ccccc3O2)cc1 (stereo unspecified) | inconclusive: -22.6% | –
COc1ccc(OC)c(C(=O)/C=C/c2cccnc2)c1 | – | inconclusive: 2060 nM [falling, partial curve, poor fit]
COc1ccc(C(=O)NCC(=O)OCC(=O)NC(=O)NC2CCCCC2)cc1OC | inconclusive: -2.45% | –
CCOC(=O)c1oc2ccccc2c1NC(=O)c1ccc(S(=O)(=O)N(C)C)cc1 | inconclusive: 3.9% | –
COc1cc(NC(=O)C2C3CCC(O3)C2C(=O)O)cc(OC)c1 (stereo unspecified) | – | inconclusive: 6510 nM [activator, single point]
CCN(CC)c1ccc(S(=O)(=O)N2CCCCC2)cc1NC(=O)C1CCC1 | inconclusive: -68% | –
CN(CC(=O)O)Cc1nc2ccccc2[nH]1 | inconclusive: -145% | –
CNCC(O)c1ccc(O)c(O)c1 (stereo unspecified) | inconclusive: 11% | –
COc1ccc(S(=O)(=O)N2CCOCC2)cc1NC(=O)c1cccs1 | inconclusive: 9.88% | –
CCOCCCNC(=O)c1ccc(NC(=O)C2=CSCCO2)cc1 | inconclusive: 82.5% | –
O=C(c1ccc(Cl)c(S(=O)(=O)N2CCOCC2)c1)N(c1ccccn1)C1CCCCC1 | inconclusive: 16.6% | –
COC(=O)C1=C(C)N=c2s/c(=C/c3cccs3)c(=O)n2C1c1ccc(F)cc1 (stereo unspecified) | – | inconclusive: 1640 nM [falling, full curve]
COc1ccc(S(=O)(=O)Nc2ccc(S(=O)(=O)N3CCCCC3)cc2)cc1C | – | inconclusive: 3260 nM [activator, partial curve]
O=C(NCCCc1ccccc1)C1CCC(=O)N(CCc2ccc(Cl)cc2)C1 (stereo unspecified) | inconclusive: -5.23% | –
c1ccc2c(c1)ncn2Cc1nnc2sc(-c3ccc4c(c3)OCO4)nn12 | inconclusive: -42% | –

Whole records from above.
Cc1ccc(OCC(=O)N2CCC(N3CCCCCC3)CC2)cc1 is listed with lipid storage change, negative = inhibition: inconclusive: -36%
COC(=O)C1=C(C)N=c2s/c(=C/c3cccs3)c(=O)n2C1c1ccc(F)cc1 (stereo unspecified) is listed with Potency: inconclusive: 1640 nM [falling, full curve]
